In the supplement of paper PMC8256030:
“And” between values parts separate entries of the source, which are not always exact repeats. Identical values can stand only once. Some of the results follow. This data set is noisy: repeats of one test often differ as much as different tests do.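 HEK293T cells were given each compound shortly before transfection with a reporter in which red mCherry is followed by the SARS-CoV-2 frameshift element and then GFP in the −1 frame, so GFP appears only after frameshifting.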

tested on: HEK293T; assay: percent viability (nuclei count) relative to control; higher = more viable cells; details: 10 µM; 24 h

Point of comparison: CCC[S+]([O-])c1ccc2[nH]c(NC(=O)OC)nc2c1 (stereo not given) [Ricobendazole], percent viability 135%. Against it:
- Cc1ccccc1C(=O)Nc1ccc(C(=O)N2CCCC(N(C)C)c3ccccc32)cc1 (stereo not given) [mozavaptan] — lower, 22.7%
- Nc1nc(N)c2nc(CNc3ccc(C(=O)N[C@@H](CCC(=O)O)C(=O)O)cc3)cnc2n1 — higher, 233%
- Cc1cc(NC(=O)C2=C(O)c3ccccc3S(=O)(=O)N2C)no1 [isoxicam] — lower, 71.6%
- O=c1[nH]cnc2c1ncn2[C@@H]1O[C@H](CO)[C@@H](O)[C@H]1O — higher, 254%
- NCCCC[C@H](N[C@@H](CCc1ccccc1)C(=O)O)C(=O)N1CCC[C@H]1C(=O)O [Lisinopril] — higher, 205%
- COc1nc(C)nc(Cl)c1NC1=NCCN1 [moxonidine] — lower, 96.2%
- Cc1ccc([C@@H]2O[C@H](CO)[C@@H](O)[C@H](O)[C@H]2O)cc1Cc1ccc(-c2ccc(F)cc2)s1 [Canagliflozin] — higher, 175%
- CN(C)CC/C=C1/c2ccccc2Sc2ccc(Cl)cc21 [chlorprothixene] — higher, 400%
- CN(C)C(=O)CCS[C@H](SCCC(=O)O)c1cccc(/C=C/c2ccc3ccc(Cl)cc3n2)c1 [verlukast] — lower, 113%
- CC(C)c1nc(N(C)S(C)(=O)=O)nc(-c2ccc(F)cc2)c1/C=C/[C@@H](O)C[C@@H](O)CC(=O)O [Rosuvastatin] — lower, 26.3%
- Nc1nc(=O)n([C@H]2C[C@H](O)[C@@H](CO)O2)cc1I [ibacitabine] — higher, 242%
- CO[C@H]1/C=C/O[C@@]2(C)Oc3c(C)c(O)c4c(O)c(c(/C=N/N5CCN(C)CC5)c(O)c4c3C2=O)NC(=O)/C(C)=C\C=C\[C@H](C)[C@H](O)[C@@H](C)[C@@H](O)[C@@H](C)[C@H](OC(C)=O)[C@@H]1C [Rifampicin] — higher, 336%
- O=C(CCCN1CCC(C(=O)c2ccc(F)cc2)CC1)c1ccc(F)cc1 [lenperone] — lower, 91.9%
- Cc1ccsc1/C=C/C1=NCCCN1C — higher, 304%
- NCCCC[C@H](NC(=O)[C@@H](Cc1cc(Br)c(O)c(Br)c1)NC(=O)N1CCC(N2Cc3ccccc3NC2=O)CC1)C(=O)N1CCN(c2ccncc2)CC1 [olcegepant] — higher, 202%
- CCCCCCCCCCCCCCCC(=O)OC[C@@H](O)[C@H]1OC[C@H](O)[C@H]1O [sorbitan palmitate] — higher, 145%
- O/N=C/c1cc[n+](CCC[n+]2ccc(/C=N/O)cc2)cc1 [trimedoxime bromide] — lower, 118%
- COc1cc2c3cc1Oc1cc(ccc1O)C[C@@H]1c4c(cc(OC)c(O)c4Oc4ccc(cc4)C[C@@H]3N(C)CC2)CC[N+]1(C)C — higher, 179%
- O=C(NCC(O)CO)c1c(I)c(C(=O)NCC(O)CO)c(I)c(N(CCO)C(=O)CO)c1I (stereo not given) [ioversol] — higher, 149%
- C/C(=N\O)C(C)NCC(C)(C)CNC(C)/C(C)=N/O (stereo not given) [exametazime] — higher, 179%
- CC(C)(C)c1cc(/C=C2\SC(=N)NC2=O)cc(C(C)(C)C)c1O [darbufelone] — higher, 170%
- FC(F)(F)C(Cl)Br (stereo not given) [halothane] — lower, 132%
- C[N+]1(C)[C@@H]2C[C@@H](OC(=O)C(O)(c3cccs3)c3cccs3)C[C@H]1[C@@H]1O[C@@H]12 [Tiotropium Bromide] — higher, 281%
- Cc1ccccc1-c1cc(N2CCN(C)CC2)ncc1N(C)C(=O)C(C)(C)c1cc(C(F)(F)F)cc(C(F)(F)F)c1 [netupitant] — higher, 277%
- CN(C)[C@@H]1C(=O)C(C(N)=O)=C(O)[C@@]2(O)C(=O)C3=C(O)c4c(O)ccc(Cl)c4[C@@H](O)[C@H]3C[C@@H]12 [Demeclocycline] — lower, 66.3%
- COc1nc(N)nc2c1ncn2[C@@H]1O[C@H](CO)[C@@H](O)[C@@H]1O [Arranon] — lower, 93.6%
- CN1CCN(CCCN2c3ccccc3Sc3ccc(S(=O)(=O)N(C)C)cc32)CC1 [thioproperazine] — higher, 360%
- CC(=O)N[C@H](Cc1ccc2ccccc2c1)C(=O)N[C@H](Cc1ccc(Cl)cc1)C(=O)N[C@H](Cc1cccnc1)C(=O)N[C@@H](CO)C(=O)N(C)[C@@H](Cc1ccc(O)cc1)C(=O)N[C@H](CC(N)=O)C(=O)N[C@@H](CC(C)C)C(=O)N[C@@H](CCCCNC(C)C)C(=O)N1CCC[C@H]1C(=O)N[C@H](C)C(N)=O [abarelix] — lower, 124%
- CCn1cc(C(=O)O)c(=O)c2cc(F)c(N3CCN(C)CC3)cc21 — higher, 304%
- CN1C(C(=O)Nc2ccccn2)=C(O)c2sc(Cl)cc2S1(=O)=O [Lornoxicam] — lower, 28.2%
- CN(C)C(=O)Cn1cc(-c2ccc(-c3cncc4ccccc34)cc2)cn1 — higher, 533%
- NC(=O)C(=O)N/N=C/c1ccc([N+](=O)[O-])o1 [nifuraldezone] — higher, 225%
- COc1cc2c(cc1OC)CN(C(=O)[C@H](C)N[C@@H](CCc1ccccc1)C(=O)O)[C@H](C(=O)O)C2 [moexiprilat] — higher, 221%

In the case of CCOC(=O)[C@H](CCc1ccccc1)N[C@@H](C)C(=O)N1[C@H](C(=O)O)C[C@H]2CCCC[C@@H]21 [trandolapril], the percent viability was 233% and 146%.
CC(C)NCC(O)COc1ccc(CC(N)=O)cc1 (stereo not given) [atenolol] was tested, and the percent viability was 277% and 95.5%.
For Cc1c(-c2cnccn2)ssc1=S [oltipraz], the percent viability was 129% and 220%.
For Cn1c(=O)c2c(ncn2CC2OCCO2)n(C)c1=O [doxofylline], the percent viability was 226% and 196%.
For COc1ccc2c(c1)c(CC(=O)O)c(C)n2C(=O)c1ccc(Cl)cc1 [indometacin], the percent viability was 178% and 369%.
With Cc1ccc(N(CC2=NCCN2)c2cccc(O)c2)cc1 [phentolamine] the percent viability was 188% and 172%.
